Data as given in publication PMC4125095, “Arabidopsis miR171-Targeted Scarecrow-Like Proteins Bind to GT cis-Elements and Mediate Gibberellin-Regulated Chlorophyll Biosynthesis under Light Conditions”.
Results are given in words; binding and its absence hold for the method and conditions named. Some results given as binding are weak or reduced against the parent protein; the word gives no strength.

Target: T1, SCL22 in pGBKT7 (Arabidopsis thaliana) (UniProt Q9M000)
T1 sequence: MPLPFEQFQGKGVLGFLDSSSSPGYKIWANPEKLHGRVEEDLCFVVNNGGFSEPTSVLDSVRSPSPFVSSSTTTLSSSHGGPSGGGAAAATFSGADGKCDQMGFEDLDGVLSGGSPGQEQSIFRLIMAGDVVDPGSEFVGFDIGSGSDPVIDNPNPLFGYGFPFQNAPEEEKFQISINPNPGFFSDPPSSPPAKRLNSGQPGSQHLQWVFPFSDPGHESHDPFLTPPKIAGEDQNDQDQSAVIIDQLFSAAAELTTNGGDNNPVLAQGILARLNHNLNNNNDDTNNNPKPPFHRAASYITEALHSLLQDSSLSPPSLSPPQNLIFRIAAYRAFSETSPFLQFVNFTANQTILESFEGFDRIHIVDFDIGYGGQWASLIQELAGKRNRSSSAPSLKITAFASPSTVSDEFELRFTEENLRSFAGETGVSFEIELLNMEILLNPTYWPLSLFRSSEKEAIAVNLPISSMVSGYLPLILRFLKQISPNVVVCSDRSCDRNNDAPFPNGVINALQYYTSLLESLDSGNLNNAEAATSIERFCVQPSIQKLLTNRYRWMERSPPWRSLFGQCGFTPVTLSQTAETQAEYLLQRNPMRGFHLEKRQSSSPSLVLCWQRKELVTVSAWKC
Test: two-hybrid; yeast strain AH109; transformants selected on SD-Leu-Trp; interactions tested on SD-Trp-Leu-His-Ade plates with or without 3-amino-1,2,4-triazole; pDEST32/pDEST22 (SCL27 and RGA) or pGBKT7/pGADT7 (SCL22 and DELLAs)

binding: binds
B1: RGL1 in pGADT7 (protein, UniProt Q9C8Y3 1-511)
chain: MKREHNHRESSAGEGGSSSMTTVIKEEAAGVDELLVVLGYKVRSSDMADVAHKLEQLEMVLGDGISNLSDETVHYNPSDLSGWVESMLSDLDPTRIQEKPDSEYDLRAIPGSAVYPRDEHVTRRSKRTRIESELSSTRSVVVLDSQETGVRLVHALLACAEAVQQNNLKLADALVKHVGLLASSQAGAMRKVATYFAEGLARRIYRIYPRDDVALSSFSDTLQIHFYESCPYLKFAHFTANQAILEVFATAEKVHVIDLGLNHGLQWPALIQALALRPNGPPDFRLTGIGYSLTDIQEVGWKLGQLASTIGVNFEFKSIALNNLSDLKPEMLDIRPGLESVAVNSVFELHRLLAHPGSIDKFLSTIKSIRPDIMTVVEQEANHNGTVFLDRFTESLHYYSSLFDSLEGPPSQDRVMSELFLGRQILNLVACEGEDRVERHETLNQWRNRFGLGGFKPVSIGSNAYKQASMLLALYAGADGYNVEENEGCLLLGWQTRPLIATSAWRINRVE
